{
  "source": "PubChem BioAssay AID1508600",
  "about": "(Functional Genomics Laboratory (NCATS/FGL), 2020)",
  "note": "Screen size: about 53,000 sequences; about 3,700 (7%) were called active.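 How the source made its calls: active means gene knockdowns whose robust z-score for IL-1 alpha signal is at least 2 or at most -2, so actives lie on both sides; inactive means the rest.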 This is one part of the list.",
  "data": [
    {"experiment": "Components of the Cytosolic LPS Sensing Pathway: Gene Identification via Genome-wide siRNA Screen;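 further: robust z of the log signal after scaling to non-targeting control siRNA wells of the plate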", "conditions": "RAW264.7 macrophages, IL-1a HTRF, actives lie on both sides, screened at 100 nM (by protocol), cells primed 5 h with Pam3CSK4 first", "how_it_was_run": "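IL-1a HTRF of supernatants after 24 hour LipidA transfection of Pam3CSK4-primed (5 hours) RAW264.7 cells, 48h post-siRNA transfection (100 nM). Scores: percent of plate negative-control median, then log-based robust z-score.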", "values": [
      {"sequence": "GCAGUGUAACAUGAUCAAUTT against Scarb1", "z-score": "inactive: 1.42"},
      {"sequence": "GGCCAAAGAGAUGCUGAAGTT against Spire2", "z-score": "inactive: 1.35"},
      {"sequence": "CCCUGAUUGAUCGGUCUUGTT against Rundc3b", "z-score": "inactive: 0.452"},
      {"sequence": "GGGUGUGAAAGUUGUCUUCTT against Foxb1", "z-score": "inactive: 1.4"},
      {"sequence": "CGCAGCAUUGUUAGAUAUUTT against Adss", "z-score": "inactive: 0.98"},
      {"sequence": "GGUCAUCGGUACCACCAGATT against Rdh8", "z-score": "inactive: 0.745"},
      {"sequence": "CCUCGAGUCAUGGUGUAUCTT against Ndufb9", "z-score": "inactive: 0.301"},
      {"sequence": "GCGACACACCAGAAGUUAUTT against Fgf7", "z-score": "inactive: 1.1"},
      {"sequence": "GCACACUGAUGAACUUACCTT against Ston2", "z-score": "active: 2.55"},
      {"sequence": "GGACCUGUCCCGUCAAAGATT against Ecrg4", "z-score": "inactive: 0.607"},
      {"sequence": "CCUAAAUUCUUCACCUUCGTT against Tor4a", "z-score": "inactive: -0.275"},
      {"sequence": "GCUACUAUGUGCCCUGAUATT against Ms4a7", "z-score": "inactive: -0.458"},
      {"sequence": "GGCAUUAAUAGACCAGUUATT against Pcmt1", "z-score": "inactive: -1.24"},
      {"sequence": "GGAACAUUCCAGAAUAUCATT against Stkld1", "z-score": "inactive: -0.266"},
      {"sequence": "CCAAUUGGGCCACACGUAATT against Tial1", "z-score": "inactive: 1.15"},
      {"sequence": "GUAAGGGCGGUUCUAAGAGTT against Ggnbp1", "z-score": "inactive: 1.27"},
      {"sequence": "GCGAAAGAGAGAGUGACUUTT against Olfr812", "z-score": "inactive: 0.829"},
      {"sequence": "GGAGAAUCUUAGAGAUUAUTT against Pramel1", "z-score": "inactive: 0.722"},
      {"sequence": "GGUUGAUGAUGUUGUGAAATT against Mrps15", "z-score": "inactive: 0.427"},
      {"sequence": "GGCUGUUGUAUUCAGACCATT against Ackr3", "z-score": "inactive: -0.399"},
      {"sequence": "GGUUGAACGGACAGAAAGGTT against Cpne3", "z-score": "inactive: -0.731"},
      {"sequence": "CCUUGAUCGUGGGACCUUUTT against Slc16a14", "z-score": "inactive: -0.304"},
      {"sequence": "GUCUGCAUCACCUUCACCATT against Lhb", "z-score": "inactive: -0.301"},
      {"sequence": "CCCUGACUACCUCUACCAUTT against Rab44", "z-score": "inactive: 0.366"},
      {"sequence": "CCUUAUUUAGCUAAAGGAGTT against Rasl2-9", "z-score": "inactive: -0.35"},
      {"sequence": "GCAAAUUUACCUCGGUUUUTT against Olfr46", "z-score": "inactive: 0.388"},
      {"sequence": "GCAAGUUCAUUAAACCAUATT against Rec8", "z-score": "inactive: 0.629"},
      {"sequence": "GGGAAUGGCGCAGACAAUGTT against Mllt10", "z-score": "inactive: 1.09"},
      {"sequence": "CCAAAUAUGUACUUCAUGGTT against Adipor1", "z-score": "inactive: -0.147"},
      {"sequence": "GGACUACGUACAGUCCAUGTT against Eef1b2", "z-score": "inactive: 0.482"},
      {"sequence": "GGAACUUGACAUUGACAUATT against Klrb1b", "z-score": "inactive: 0.0485"},
      {"sequence": "GUCUGGAGCCCUGUAUUCCTT against Nradd", "z-score": "inactive: -0.645"},
      {"sequence": "GCUGUUUGACUAAAUGAACTT against Tlr13", "z-score": "inactive: -0.228"},
      {"sequence": "GGGUUGAAUCACAAUUUGUTT against Ube2e1", "z-score": "inactive: 1.1"},
      {"sequence": "GGCCAAAUUCAACUAGUUCTT against Nudc", "z-score": "inactive: -0.176"},
      {"sequence": "GGCCGUGUUAUCCAGAUUGTT against Prkcd", "z-score": "inactive: 1.43"},
      {"sequence": "GGAGAUGAAUUGAUGACCCTT against Strap", "z-score": "inactive: -1.06"},
      {"sequence": "GGCACUAAGGAAGAAAAAATT against Iqcd", "z-score": "inactive: -1.59"},
      {"sequence": "GGGUAUUUUCACUGAAAGUTT against Ltbp3", "z-score": "inactive: 0.431"},
      {"sequence": "CCUUAAGGAACUAGGAUUCTT against Lgr5", "z-score": "inactive: 1.05"},
      {"sequence": "CCAGCAACCUGAAAUACCUTT against Vmn2r66", "z-score": "inactive: -0.852"},
      {"sequence": "GGCAAAGAGGCCAAAGCCATT against Zfp281", "z-score": "inactive: -1.44"},
      {"sequence": "GGGCAUCAUCUAUAAAAAGTT against Avil", "z-score": "inactive: -1.03"},
      {"sequence": "CCCAGGACGAGACUUAAAUTT against Cachd1", "z-score": "inactive: -0.252"},
      {"sequence": "CCUAUCAAAUUCAGAGGUUTT against Rinl", "z-score": "inactive: 0.294"},
      {"sequence": "GCAAAAAGGAGCGGUCCACTT against Plce1", "z-score": "inactive: 1.13"},
      {"sequence": "GGCAUUUGAGUGGACUGUUTT against Hirip3", "z-score": "inactive: 0.421"},
      {"sequence": "CCUUAGGAAUUCACAAUCUTT against Mcpt8", "z-score": "inactive: -0.504"},
      {"sequence": "GGAUUCCACAAUUUUUGUATT against Ncoa6", "z-score": "inactive: -0.399"},
      {"sequence": "GGUGUUAUCUGCAUCAUCATT against Cyp4f15", "z-score": "inactive: -1.42"},
      {"sequence": "GGACAGGAAAGUCAAGUACTT against Txnrd2", "z-score": "inactive: 0.282"},
      {"sequence": "GGUGUCAUUCCAUAGUUCUTT against Ap4m1", "z-score": "inactive: -0.48"},
      {"sequence": "GGUCUUUUGAGCCAAUGGUTT against 4930470P17Rik", "z-score": "inactive: -0.956"},
      {"sequence": "GCUUGAAGGUAUAAUUUCATT against Cldn12", "z-score": "inactive: 0.296"},
      {"sequence": "GCUUCAGUCGAAGUUCCUUTT against Zfp189", "z-score": "inactive: 1.23"},
      {"sequence": "CGAAUAAAGCUUCAUUGUGTT against Atp5k", "z-score": "inactive: 0.977"},
      {"sequence": "GGGUGUUGACAUAAAAAAUTT against Nsdhl", "z-score": "inactive: 0.702"},
      {"sequence": "GGUGAAUGUUGGAGACACATT against Fam131a", "z-score": "inactive: -1.54"},
      {"sequence": "GGUUGUUCCCGGAAGAAUCTT against Rtn4r", "z-score": "inactive: -0.874"},
      {"sequence": "GGUUUUGCCAAGGACGCAGTT against Ngf", "z-score": "inactive: 0.124"},
      {"sequence": "CCUUACUCGAUUAAAAGAATT against Eif3e", "z-score": "inactive: -1.38"},
      {"sequence": "GGGUUUCAACGGCUGUGACTT against Mef2d", "z-score": "active: -2.73"},
      {"sequence": "GGUCAUUUCUGUCUUCUACTT against Olfr323", "z-score": "inactive: 0.0432"},
      {"sequence": "GCAACAAGAGGGCAGAAUGTT against Olfr518", "z-score": "active: -2.22"},
      {"sequence": "GCAACCAAAUCUAUUGUUCTT against Usp50", "z-score": "inactive: 0.881"},
      {"sequence": "CGCAAGAUUGCAUUGUGUATT against Clec4a1", "z-score": "inactive: 0.0252"},
      {"sequence": "CCUCGAGUUCGGAAACAGATT against Chd8", "z-score": "inactive: -1.06"},
      {"sequence": "GGAGAAUGCUGAAACACCUTT against Rgs7bp", "z-score": "inactive: -0.295"}
    ]}
  ]
}
